Test results published in publication PMC11997425, “MADS-domain transcription factor AGAMOUS LIKE-9 participates in the gibberellin pathway to promote bud dormancy release of tree peony”.
No constants are given. Whether binding was seen depends on the method and setting. Binding seen in cells or lysates may run through a third protein. Here binding means that the protein was enriched with, or labelled near, the bait; the list need not be complete.

Amino acid sequences for entries named in this document (tags omitted). A change or cut given only in a name is not applied to a line headed by its entry.
UniProt V9I0Q3: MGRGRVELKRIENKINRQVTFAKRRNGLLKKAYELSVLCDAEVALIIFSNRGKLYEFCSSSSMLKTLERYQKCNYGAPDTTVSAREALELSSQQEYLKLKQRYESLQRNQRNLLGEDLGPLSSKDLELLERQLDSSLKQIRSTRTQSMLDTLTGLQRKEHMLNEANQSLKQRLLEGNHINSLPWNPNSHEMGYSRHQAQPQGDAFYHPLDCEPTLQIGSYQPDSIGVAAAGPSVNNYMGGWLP
UniProt A0A346FU24: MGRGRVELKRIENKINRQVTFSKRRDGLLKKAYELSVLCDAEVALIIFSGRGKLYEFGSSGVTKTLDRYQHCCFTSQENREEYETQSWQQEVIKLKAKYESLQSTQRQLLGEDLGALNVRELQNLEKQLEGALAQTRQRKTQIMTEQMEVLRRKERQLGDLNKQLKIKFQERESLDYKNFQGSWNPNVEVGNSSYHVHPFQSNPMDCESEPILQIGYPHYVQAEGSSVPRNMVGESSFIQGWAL

Biological target: GST-PsAGL9 fusion protein (Paeonia suffruticosa (tree peony)) (UniProt V9I0Q3)
Experiment: affinity purification with mass spectrometry; purified GST fusion protein immobilised on Glutathione Magnetic Agarose Beads; incubated with total proteins of chilled tree peony buds for 1 h at 4°C; beads washed three times with PBS; LC-MS/MS; GST as control; only the target purified

binding	Substance
binds	PsAGL6, endogenous (from UniProt A0A346FU24)
binds	PsAGL9 (AGAMOUS-LIKE 9), endogenous (from UniProt V9I0Q3)
